Assay results reported in the supplement of paper PMC10849652.
The other results are listed elsewhere or left out.

Chains of the proteins cited; added tags and fusions are not shown. Lines headed by an entry give the natural chain unless they say otherwise; changes in a name come on top.
UniProt Q9NQW7: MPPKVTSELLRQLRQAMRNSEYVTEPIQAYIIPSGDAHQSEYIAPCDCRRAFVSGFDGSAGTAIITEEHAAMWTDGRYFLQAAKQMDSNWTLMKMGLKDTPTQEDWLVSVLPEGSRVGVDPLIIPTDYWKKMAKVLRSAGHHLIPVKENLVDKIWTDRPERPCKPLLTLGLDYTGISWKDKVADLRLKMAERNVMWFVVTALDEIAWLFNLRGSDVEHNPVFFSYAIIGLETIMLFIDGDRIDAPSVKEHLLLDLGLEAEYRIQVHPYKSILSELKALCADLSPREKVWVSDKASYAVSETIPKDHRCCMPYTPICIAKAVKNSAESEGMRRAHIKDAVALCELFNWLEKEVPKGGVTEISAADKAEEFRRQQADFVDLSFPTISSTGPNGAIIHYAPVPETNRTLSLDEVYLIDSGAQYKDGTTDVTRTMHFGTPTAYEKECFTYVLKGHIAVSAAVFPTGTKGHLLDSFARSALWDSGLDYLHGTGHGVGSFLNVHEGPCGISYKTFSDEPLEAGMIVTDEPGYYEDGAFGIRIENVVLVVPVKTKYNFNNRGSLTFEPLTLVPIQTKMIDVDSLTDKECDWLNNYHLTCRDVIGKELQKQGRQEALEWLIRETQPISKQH
UniProt Q5MNZ6: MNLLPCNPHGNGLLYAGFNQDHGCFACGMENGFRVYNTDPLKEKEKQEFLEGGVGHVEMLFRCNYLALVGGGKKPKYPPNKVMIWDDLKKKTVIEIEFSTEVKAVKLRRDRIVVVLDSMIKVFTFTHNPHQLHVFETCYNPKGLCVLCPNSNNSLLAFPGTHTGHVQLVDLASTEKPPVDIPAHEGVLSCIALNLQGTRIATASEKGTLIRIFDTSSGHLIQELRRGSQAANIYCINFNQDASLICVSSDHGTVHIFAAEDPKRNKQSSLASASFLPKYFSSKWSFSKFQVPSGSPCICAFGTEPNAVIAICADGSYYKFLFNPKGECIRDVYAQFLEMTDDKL
UniProt Q9Y2I8: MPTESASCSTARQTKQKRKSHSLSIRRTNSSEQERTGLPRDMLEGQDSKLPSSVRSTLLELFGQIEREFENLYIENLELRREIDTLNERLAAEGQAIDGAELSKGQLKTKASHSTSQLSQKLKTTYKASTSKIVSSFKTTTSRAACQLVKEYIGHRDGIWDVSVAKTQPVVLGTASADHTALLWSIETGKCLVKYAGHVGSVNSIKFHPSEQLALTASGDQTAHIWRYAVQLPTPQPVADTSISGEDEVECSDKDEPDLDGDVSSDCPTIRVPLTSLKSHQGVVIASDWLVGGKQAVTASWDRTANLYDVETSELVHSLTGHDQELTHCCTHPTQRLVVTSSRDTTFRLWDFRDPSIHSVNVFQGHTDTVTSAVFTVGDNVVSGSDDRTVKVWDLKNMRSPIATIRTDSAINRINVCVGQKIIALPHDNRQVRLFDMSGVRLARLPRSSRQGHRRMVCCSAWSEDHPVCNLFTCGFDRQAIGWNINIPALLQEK
UniProt Q9UEU0: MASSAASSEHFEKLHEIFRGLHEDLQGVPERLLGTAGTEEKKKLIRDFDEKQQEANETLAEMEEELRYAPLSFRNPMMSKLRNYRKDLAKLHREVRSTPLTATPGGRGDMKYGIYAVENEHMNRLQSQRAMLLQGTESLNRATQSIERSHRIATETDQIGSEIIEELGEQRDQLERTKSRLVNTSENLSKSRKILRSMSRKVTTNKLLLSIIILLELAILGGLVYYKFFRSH
UniProt Q14191, whole entry, looked up: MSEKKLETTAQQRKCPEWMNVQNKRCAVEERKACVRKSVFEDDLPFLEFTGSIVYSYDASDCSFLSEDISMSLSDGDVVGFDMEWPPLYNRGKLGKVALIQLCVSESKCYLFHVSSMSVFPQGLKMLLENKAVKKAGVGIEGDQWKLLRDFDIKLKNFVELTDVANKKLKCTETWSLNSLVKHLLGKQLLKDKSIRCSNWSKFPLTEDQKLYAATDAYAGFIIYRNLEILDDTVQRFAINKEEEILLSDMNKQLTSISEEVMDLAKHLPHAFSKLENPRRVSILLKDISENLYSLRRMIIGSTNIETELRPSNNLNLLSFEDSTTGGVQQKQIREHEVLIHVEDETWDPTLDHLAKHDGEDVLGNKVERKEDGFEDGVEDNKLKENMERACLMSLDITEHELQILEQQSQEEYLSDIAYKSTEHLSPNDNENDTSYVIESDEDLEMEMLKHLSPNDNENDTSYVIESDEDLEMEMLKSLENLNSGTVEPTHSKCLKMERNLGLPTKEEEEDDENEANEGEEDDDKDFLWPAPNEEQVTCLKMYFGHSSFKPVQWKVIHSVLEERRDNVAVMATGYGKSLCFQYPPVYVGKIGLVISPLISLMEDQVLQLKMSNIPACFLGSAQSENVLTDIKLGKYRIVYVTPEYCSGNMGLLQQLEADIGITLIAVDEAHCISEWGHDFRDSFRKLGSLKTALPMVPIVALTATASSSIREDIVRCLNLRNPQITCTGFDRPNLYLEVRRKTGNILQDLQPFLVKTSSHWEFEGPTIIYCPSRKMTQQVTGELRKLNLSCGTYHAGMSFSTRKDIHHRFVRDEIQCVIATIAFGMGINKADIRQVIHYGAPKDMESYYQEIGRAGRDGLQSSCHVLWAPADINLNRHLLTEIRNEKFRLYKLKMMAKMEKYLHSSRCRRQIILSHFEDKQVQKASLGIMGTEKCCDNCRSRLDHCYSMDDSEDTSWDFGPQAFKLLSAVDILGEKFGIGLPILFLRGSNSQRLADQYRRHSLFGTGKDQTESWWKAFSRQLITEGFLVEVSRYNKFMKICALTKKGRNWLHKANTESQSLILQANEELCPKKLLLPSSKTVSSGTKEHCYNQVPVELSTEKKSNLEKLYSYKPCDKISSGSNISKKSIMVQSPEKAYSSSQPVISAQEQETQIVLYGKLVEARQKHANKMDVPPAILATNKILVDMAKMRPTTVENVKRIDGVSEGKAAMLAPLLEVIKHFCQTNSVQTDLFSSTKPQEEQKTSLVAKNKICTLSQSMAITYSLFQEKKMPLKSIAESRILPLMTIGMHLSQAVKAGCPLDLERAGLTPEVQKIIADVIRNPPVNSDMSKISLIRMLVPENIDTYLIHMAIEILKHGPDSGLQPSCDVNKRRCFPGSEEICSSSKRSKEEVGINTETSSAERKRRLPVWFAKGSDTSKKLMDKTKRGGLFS
UniProt Q8N1B4: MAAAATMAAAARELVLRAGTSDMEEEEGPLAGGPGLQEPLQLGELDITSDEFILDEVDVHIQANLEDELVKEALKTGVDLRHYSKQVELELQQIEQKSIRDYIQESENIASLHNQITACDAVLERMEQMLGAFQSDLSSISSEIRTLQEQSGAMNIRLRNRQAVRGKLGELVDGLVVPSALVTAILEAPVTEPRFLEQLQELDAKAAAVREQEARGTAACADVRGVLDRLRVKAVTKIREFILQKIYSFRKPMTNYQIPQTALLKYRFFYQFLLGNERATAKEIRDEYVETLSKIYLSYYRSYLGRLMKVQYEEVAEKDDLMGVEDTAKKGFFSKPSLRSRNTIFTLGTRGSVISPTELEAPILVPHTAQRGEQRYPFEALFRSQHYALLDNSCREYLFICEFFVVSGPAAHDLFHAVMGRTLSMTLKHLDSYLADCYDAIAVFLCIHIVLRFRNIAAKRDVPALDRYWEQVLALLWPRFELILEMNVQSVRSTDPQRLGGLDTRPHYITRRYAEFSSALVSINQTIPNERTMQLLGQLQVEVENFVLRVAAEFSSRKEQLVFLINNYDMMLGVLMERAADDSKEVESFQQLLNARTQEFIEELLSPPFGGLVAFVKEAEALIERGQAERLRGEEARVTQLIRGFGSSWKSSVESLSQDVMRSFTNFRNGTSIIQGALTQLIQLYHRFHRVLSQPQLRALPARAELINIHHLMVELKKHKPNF
UniProt Q9BZH6: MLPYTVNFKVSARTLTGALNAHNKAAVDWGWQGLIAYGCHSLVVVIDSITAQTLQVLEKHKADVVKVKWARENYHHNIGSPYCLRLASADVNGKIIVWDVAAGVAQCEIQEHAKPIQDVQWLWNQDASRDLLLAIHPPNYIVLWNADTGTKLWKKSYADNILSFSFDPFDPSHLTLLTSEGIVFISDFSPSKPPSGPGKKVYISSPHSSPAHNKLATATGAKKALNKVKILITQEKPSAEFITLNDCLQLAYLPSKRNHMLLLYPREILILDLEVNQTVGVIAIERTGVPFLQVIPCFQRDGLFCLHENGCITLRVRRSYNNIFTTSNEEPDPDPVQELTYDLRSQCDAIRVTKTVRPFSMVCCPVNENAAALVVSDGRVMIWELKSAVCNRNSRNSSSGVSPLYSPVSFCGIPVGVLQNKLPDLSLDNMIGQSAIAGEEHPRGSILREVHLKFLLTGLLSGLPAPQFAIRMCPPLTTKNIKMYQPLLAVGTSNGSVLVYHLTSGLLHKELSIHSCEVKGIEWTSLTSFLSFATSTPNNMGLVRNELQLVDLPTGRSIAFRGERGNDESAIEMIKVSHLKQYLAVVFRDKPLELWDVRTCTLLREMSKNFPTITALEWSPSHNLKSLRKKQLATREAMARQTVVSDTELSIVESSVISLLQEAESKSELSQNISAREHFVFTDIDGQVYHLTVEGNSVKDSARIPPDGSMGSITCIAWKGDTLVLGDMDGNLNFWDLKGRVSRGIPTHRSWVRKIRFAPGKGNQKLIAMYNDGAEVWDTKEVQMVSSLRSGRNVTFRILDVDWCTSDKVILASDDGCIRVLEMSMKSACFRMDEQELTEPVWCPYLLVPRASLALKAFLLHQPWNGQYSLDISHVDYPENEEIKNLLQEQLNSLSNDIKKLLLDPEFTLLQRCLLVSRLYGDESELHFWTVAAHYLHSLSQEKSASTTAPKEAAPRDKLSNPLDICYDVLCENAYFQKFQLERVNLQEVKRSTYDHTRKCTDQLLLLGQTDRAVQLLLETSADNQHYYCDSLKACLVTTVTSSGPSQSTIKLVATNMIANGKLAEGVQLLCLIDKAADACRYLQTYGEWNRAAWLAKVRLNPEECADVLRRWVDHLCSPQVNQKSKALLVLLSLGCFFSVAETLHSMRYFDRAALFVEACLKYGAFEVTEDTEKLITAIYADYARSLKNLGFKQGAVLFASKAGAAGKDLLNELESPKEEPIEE
UniProt Q96JC1: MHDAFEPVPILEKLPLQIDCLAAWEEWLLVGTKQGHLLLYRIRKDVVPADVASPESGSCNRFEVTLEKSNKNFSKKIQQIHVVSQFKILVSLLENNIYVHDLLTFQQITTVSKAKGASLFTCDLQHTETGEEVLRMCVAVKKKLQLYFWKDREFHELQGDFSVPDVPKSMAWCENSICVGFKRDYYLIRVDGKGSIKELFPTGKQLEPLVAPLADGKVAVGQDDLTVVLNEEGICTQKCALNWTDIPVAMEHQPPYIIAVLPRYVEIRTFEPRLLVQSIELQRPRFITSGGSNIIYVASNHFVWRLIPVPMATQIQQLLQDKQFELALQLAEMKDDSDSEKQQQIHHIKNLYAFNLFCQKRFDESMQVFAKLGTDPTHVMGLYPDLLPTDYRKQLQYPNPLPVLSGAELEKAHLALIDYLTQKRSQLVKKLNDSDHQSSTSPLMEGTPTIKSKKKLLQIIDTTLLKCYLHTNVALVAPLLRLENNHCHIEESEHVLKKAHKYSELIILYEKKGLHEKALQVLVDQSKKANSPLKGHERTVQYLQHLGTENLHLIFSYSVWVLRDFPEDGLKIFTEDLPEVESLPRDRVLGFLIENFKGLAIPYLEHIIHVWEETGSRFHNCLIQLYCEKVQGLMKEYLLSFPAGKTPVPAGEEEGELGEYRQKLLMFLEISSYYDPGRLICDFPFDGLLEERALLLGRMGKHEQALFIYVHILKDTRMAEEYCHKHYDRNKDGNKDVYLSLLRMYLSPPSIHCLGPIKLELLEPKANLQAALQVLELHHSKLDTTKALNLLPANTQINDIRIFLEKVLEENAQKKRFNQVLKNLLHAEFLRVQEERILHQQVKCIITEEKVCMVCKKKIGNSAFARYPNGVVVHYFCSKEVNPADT
UniProt P23381: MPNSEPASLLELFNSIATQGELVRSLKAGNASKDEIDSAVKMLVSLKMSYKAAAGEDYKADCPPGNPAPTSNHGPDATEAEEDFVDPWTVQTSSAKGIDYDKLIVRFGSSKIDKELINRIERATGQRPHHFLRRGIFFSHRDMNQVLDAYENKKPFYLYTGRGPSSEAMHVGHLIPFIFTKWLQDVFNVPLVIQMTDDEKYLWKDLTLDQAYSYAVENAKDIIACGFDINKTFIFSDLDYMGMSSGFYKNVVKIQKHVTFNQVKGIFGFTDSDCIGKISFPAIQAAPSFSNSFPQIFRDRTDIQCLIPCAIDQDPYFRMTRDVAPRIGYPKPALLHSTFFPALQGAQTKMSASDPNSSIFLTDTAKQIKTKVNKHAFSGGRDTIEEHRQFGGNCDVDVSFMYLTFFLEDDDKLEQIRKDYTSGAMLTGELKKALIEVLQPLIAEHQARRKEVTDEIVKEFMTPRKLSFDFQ

Key:
Assay in all cases: log2 fold change, soluble protein after heating vs DMSO (PISA); higher = thermal stabilisation; K562 lysate, 10 uM; active = over 0.2 and 3.5 SD of the protein, either way, in both replicates (recomputed)
ibrutinib = compound: C=CC(=O)N1CCC[C@@H](n2nc(-c3ccc(Oc4ccccc4)cc3)c3c(N)ncnc32)C1 [ibrutinib]
In short: (§1)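 A 30 min treatment with 10 μM compound was applied to crude K562 extract at 1 mg/mL protein in PBS pH 7.4 with 1 mM MgCl2. Heating for 3 min spanned 48°C-58°C, after which aliquots were pooled, adjusted to 0.5% NP-40 at 4°C and spun at 21,000xg for 90 min. TMTpro 16plex LC-MS/MS of the supernatant, with channel sums equalised, gave values recorded as log-two fold change in thermal stability against solvent controls, from duplicates.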

[1] = compound: CC(=O)c1cnc2ccc(-c3cc(Cl)c(O)c(Cl)c3)nc2c1N[C@H]1CC[C@H](CN(C)C)CC1
In short: as §1

ralimetinib = compound: CC(C)(C)Cn1c(N)nc2ccc(-c3[nH]c(C(C)(C)C)nc3-c3ccc(F)cc3)nc21 [ralimetinib]
In short: as §1

[2] = compound: CC(C)(O)CC(=O)NCCn1ccc2ncnc(Nc3ccc(Oc4cccc(C(F)(F)F)c4)c(Cl)c3)c21
In short: as §1

[3] = compound: CC(C)C1=C2N=C(C=C(N2N=C1)NCC3=CC=CC=C3)NCCCCCCN
In short: as §1

[4] = compound: CC1=C(C(CC(=O)N1)C2=CC=C(C=C2)C(F)(F)F)C(=O)NC3=C(C=C4C(=C3)C=NN4)F
In short: as §1

[5] = compound: CC1=C(C2=C(C=C1)C(=O)C3=CC=CC=C3N2CCCN)C
In short: as §1

[6] = compound: CC1=C(C=C(C=C1)NC(=O)C2=CC(=CC=C2)C(C)(C)C#N)NC3=CC4=C(C=C3)N=CN(C4=O)C
In short: as §1

[7] = compound: CC1=C(C=C(C=C1)NC(=O)C2=CC(=CC=C2)N(C)C)NC(=O)C3=CC=C(C=C3)O
In short: as §1

[8] = compound: CC1=CC=C(C=C1)SC2=C3C=C(SC3=CN=C2)C(=O)N
In short: as §1

Row | Target | log2 fold change (ibrutinib) | log2 fold change [1] | log2 fold change (ralimetinib) | log2 fold change [2] | log2 fold change [3] | log2 fold change [4] | log2 fold change [5] | log2 fold change [6] | log2 fold change [7] | log2 fold change [8]
1 | WDR92 (UniProt Q96MX6) | inactive: 0.077 | inactive: 0.046 | inactive: 0.018 | inactive: 0.058 | inactive: -0.004 | inactive: 0.014 | inactive: 0.021 | inactive: -0.01 | inactive: -0.013 | inactive: 0.021
2 | VPS4A (UniProt Q9UN37) | inactive: 0.001 | inactive: 0 | inactive: 0.013 | inactive: 0.035 | inactive: 0 | inactive: -0.035 | inactive: -0.046 | inactive: -0.039 | inactive: 0.045 | inactive: 0.025
3 | WDCP (UniProt Q9H6R7) | inactive: 0.021 | inactive: 0.021 | inactive: -0.006 | inactive: -0.045 | inactive: -0.027 | inactive: -0.023 | inactive: -0.041 | inactive: 0 | inactive: 0.01 | inactive: 0.049
4 | WRB (UniProt O00258) | inactive: 0.045 | inactive: -0.043 | inactive: -0.095 | inactive: -0.255 | inactive: -0.024 | inactive: -0.025 | inactive: -0.141 | inactive: 0.063 | inactive: -0.004 | inactive: -0.024
5 | XPNPEP1 isoform 3 (UniProt Q9NQW7) | inactive: 0.012 | inactive: -0.007 | inactive: 0.017 | inactive: -0.026 | inactive: -0.009 | inactive: 0.007 | inactive: -0.026 | inactive: -0.025 | inactive: -0.005 | inactive: 0.002
6 | VPS13C (UniProt Q709C8) | inactive: -0.011 | inactive: 0.005 | inactive: 0.02 | inactive: 0.006 | inactive: -0.001 | active: 0.251 | inactive: -0.066 | inactive: 0.041 | inactive: -0.007 | inactive: -0.053
7 | VTA1 (UniProt Q9NP79) | inactive: 0.046 | inactive: -0.003 | inactive: -0.024 | inactive: -0.001 | inactive: -0.012 | inactive: -0.024 | inactive: 0.027 | inactive: -0.032 | inactive: 0.017 | inactive: -0.01
8 | WDR45B (UniProt Q5MNZ6) | inactive: 0.109 | inactive: 0.007 | inactive: 0.027 | inactive: -0.027 | inactive: -0.019 | inactive: 0.032 | inactive: -0.038 | inactive: 0.014 | inactive: 0.02 | inactive: -0.033
9 | WDR75 (UniProt Q8IWA0) | inactive: -0.024 | inactive: 0.004 | inactive: -0.027 | inactive: -0.004 | inactive: -0.026 | inactive: 0.062 | inactive: -0.002 | inactive: 0.006 | inactive: -0.033 | inactive: 0.043
10 | WNK1 isoform 7 (UniProt Q9H4A3) | inactive: 0.078 | inactive: -0.014 | inactive: 0.031 | inactive: -0.017 | inactive: 0.012 | inactive: 0.038 | inactive: -0.008 | inactive: -0.015 | inactive: -0.01 | inactive: -0.02
11 | WDR47 (UniProt O94967) | inactive: 0.169 | inactive: 0.02 | inactive: 0.006 | inactive: 0.035 | inactive: 0.027 | inactive: 0.093 | inactive: -0.009 | inactive: 0.033 | inactive: -0.017 | inactive: 0.049
12 | VPS35L (UniProt Q7Z3J2) | inactive: 0.011 | inactive: 0.023 | inactive: -0.003 | inactive: -0.032 | inactive: 0.003 | inactive: 0.007 | inactive: 0.018 | inactive: -0.021 | inactive: 0.009 | inactive: -0.005
13 | WBP4 (UniProt O75554) | inactive: 0.013 | inactive: -0.022 | inactive: -0.023 | inactive: 0.021 | inactive: -0.02 | inactive: 0.058 | inactive: -0.023 | inactive: 0.051 | inactive: 0.007 | inactive: -0.02
14 | WIPF1 isoform 3 (UniProt O43516) | inactive: 0.05 | inactive: 0.08 | inactive: -0.034 | inactive: -0.156 | inactive: 0.006 | inactive: 0.015 | inactive: 0.009 | inactive: -0.013 | inactive: 0.034 | inactive: -0.014
15 | WDR37 isoform 2 (UniProt Q9Y2I8) | inactive: 0.002 | inactive: -0.033 | inactive: 0.001 | inactive: -0.037 | inactive: 0.022 | inactive: 0.01 | inactive: -0.042 | inactive: 0.03 | inactive: -0.001 | inactive: -0.141
16 | VTI1B (UniProt Q9UEU0) | inactive: -0.038 | inactive: -0.034 | inactive: 0.052 | inactive: -0.002 | inactive: 0.043 | inactive: 0.092 | inactive: -0.064 | inactive: 0.019 | inactive: -0.025 | inactive: -0.029
17 | WRN (UniProt Q14191) | inactive: 0.02 | inactive: -0.008 | inactive: 0.021 | inactive: -0.055 | inactive: -0.016 | inactive: 0.023 | inactive: 0.019 | inactive: -0.016 | inactive: 0.016 | inactive: -0.048
18 | VTN (UniProt P04004) | inactive: -0.019 | inactive: -0.007 | inactive: 0.01 | inactive: -0.044 | inactive: 0.028 | inactive: 0.088 | inactive: 0.017 | inactive: -0.011 | inactive: 0.155 | inactive: -0.04
19 | VPS52 (UniProt Q8N1B4) | inactive: -0.066 | inactive: -0.01 | inactive: 0.038 | inactive: -0.029 | inactive: -0.003 | inactive: 0.038 | inactive: 0.034 | inactive: -0.017 | inactive: -0.002 | inactive: -0.012
20 | WDR91 (UniProt A4D1P6) | inactive: 0.05 | inactive: 0.011 | inactive: 0.026 | inactive: -0.002 | inactive: -0.026 | inactive: -0.013 | inactive: -0.009 | inactive: -0.046 | inactive: 0.043 | inactive: 0.002
21 | WWP2 (UniProt O00308) | inactive: -0.011 | inactive: 0.095 | inactive: -0.032 | inactive: -0.083 | inactive: 0.045 | inactive: 0.065 | inactive: -0.039 | inactive: -0.038 | inactive: 0.096 | inactive: 0.076
22 | WBP11 (UniProt Q9Y2W2) | inactive: 0.028 | inactive: 0.027 | inactive: 0.01 | inactive: -0.022 | inactive: 0.009 | inactive: -0.018 | inactive: 0.02 | inactive: 0.041 | inactive: -0.01 | inactive: 0.01
23 | WDR41 (UniProt Q9HAD4) | inactive: -0.163 | inactive: -0.004 | inactive: 0.017 | inactive: 0.088 | inactive: -0.015 | inactive: 0.03 | inactive: -0.054 | inactive: 0.164 | inactive: -0.049 | inactive: 0.015
24 | WDR11 (UniProt Q9BZH6) | inactive: -0.011 | inactive: 0.008 | inactive: 0.02 | inactive: -0.048 | inactive: 0.035 | inactive: -0.069 | inactive: 0.007 | inactive: 0.023 | inactive: 0.03 | inactive: -0.021
25 | WDR1 (UniProt O75083) | inactive: 0.002 | inactive: 0.007 | inactive: -0.013 | inactive: 0.015 | inactive: 0.009 | inactive: -0.024 | inactive: 0.022 | inactive: -0.003 | inactive: -0.012 | inactive: 0.033
26 | VPS39 (UniProt Q96JC1) | inactive: 0 | inactive: 0.021 | inactive: -0.012 | inactive: -0.056 | inactive: -0.004 | inactive: 0.014 | inactive: 0 | inactive: 0.016 | inactive: -0.014 | inactive: -0.005
27 | WIPI2 (UniProt Q9Y4P8) | inactive: 0.047 | inactive: 0.019 | inactive: 0.026 | inactive: 0.018 | inactive: 0.022 | inactive: 0.042 | inactive: -0.018 | inactive: 0.006 | inactive: -0.013 | inactive: -0.003
28 | WARS (UniProt P23381) | inactive: 0.027 | inactive: -0.002 | inactive: 0.004 | inactive: 0.014 | inactive: 0.014 | inactive: -0.012 | inactive: -0.008 | inactive: 0.011 | inactive: -0.018 | inactive: -0.008
29 | WDR46 (UniProt O15213) | inactive: -0.029 | inactive: -0.002 | inactive: 0.074 | inactive: -0.024 | inactive: 0.011 | inactive: -0.016 | inactive: -0.059 | inactive: 0.019 | inactive: 0.05 | inactive: 0.016
30 | VPS35 (UniProt Q96QK1) | inactive: -0.005 | inactive: -0.008 | inactive: -0.009 | inactive: -0.018 | inactive: -0.022 | inactive: -0.019 | inactive: 0.006 | inactive: 0.02 | inactive: 0.011 | inactive: 0.009

An excerpt taken from the entries so far:
Row | Target | log2 fold change (ibrutinib) | log2 fold change [1] | log2 fold change (ralimetinib) | log2 fold change [2] | log2 fold change [3] | log2 fold change [4] | log2 fold change [5] | log2 fold change [6] | log2 fold change [7] | log2 fold change [8]
4 | WRB (UniProt O00258) | inactive: 0.045 | inactive: -0.043 | inactive: -0.095 | inactive: -0.255 | inactive: -0.024 | inactive: -0.025 | inactive: -0.141 | inactive: 0.063 | inactive: -0.004 | inactive: -0.024
5 | XPNPEP1 isoform 3 (UniProt Q9NQW7) | inactive: 0.012 | inactive: -0.007 | inactive: 0.017 | inactive: -0.026 | inactive: -0.009 | inactive: 0.007 | inactive: -0.026 | inactive: -0.025 | inactive: -0.005 | inactive: 0.002
